Experimental data published in PubChem BioAssay (NCATS).
Values joined by “and” are separate entries in the source; they are usually repeats but may differ in a detail not shown here. Equal entries are not always repeated. The list shows a part of the results. These are further read-outs of the screen, such as a control signal, another cell line or another target. No call is given for them. For some of these results: The list favours compounds with an active or inconclusive main result. For some of these results: Potencies come from curve fits of mixed quality, noted in brackets.

Tests used:
[1] = qHTS for identification of novel therapeutic agents for treatment of microphthalmiaassociated transcription factor (MiT) renal cell carcinoma (RCC) (AID 1963991); conditions: CellTiter-Glo, 48 h; for z-score: stronger effect = lower value;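 on z-score: curves scaled with 100% = DMSO viability and 0% = empty wells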
Summary of the method: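 UOK109/UOK124/UOK145 (TFE3 fusions, three partners); 500 cells/well; MIPE v4.0, 1912 cpds, 11 conc.; 48 h, 37 C; CellTiter-Glo, 15 min RT; lum. Norm.: DMSO 100%, empty 0%.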

[2] = qHTS Assay for Modulators of Human Peripheral Myelin Protein 22 (PMP22) Expression/Activity (AID 1967); conditions: Cell-based PMP22 reporter, dual-color luciferase ratio; measured here: red reporter channel AC50; EF-alpha promoter control reporter in MSC80 mouse Schwann cells
Summary of the method: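 Mouse MSC80 Schwann line, Pmp22 promoter–CBG68 reporter, EF-alpha–CBR internal control. 24h compound exposure, 37 °C/5% CO2, DMEM + 10% FBS. Readout: corrected green/red luminescence ratio, normalized to untreated cells; concentration-response curves fitted and classified.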

[3] = qHTS drug screen for cell cycle checkpoint inhibitors in PARPi-resistant BRCA-mutant ovarian cancer cell lines. (AID 1963452); conditions: PEO1/OlaR viability, CellTiter-Glo luminescence, 96 h
Summary of the method: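 PEO1, PEO4 and PEO1/OlaR ovarian cancer cells, 600 per well, exposed 96 h at 37C to a dilution series. Viability read by CellTiter-Glo luminescence, normalized to DMSO and empty wells; activity summarized as Z-AUC.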

[4] = qHTS assay for small molecule antagonists of peroxisome proliferator-activated receptor delta signaling (AID 588535); conditions: HEK293T PPARd-UAS-bla, beta-lactamase FRET ratio, 18 h; 460 nm channel;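 further: cells co-treated with a PPAR-delta agonist as stimulator during compound exposure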
Summary of the method: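 Reporter: UAS-bla under PPAR-delta response element, HEK293T host. Medium: 2% charcoal/dextran FBS. Dosing: titration, 18 hrs, 37 C. Detection: CCF4, 2 hrs RT, 405 ex/460 and 530 em.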

[5] = S16 Schwann cell PMP22 intronic element beta-lactamase assay (AID 624044); conditions: S16 rat Schwann cells, PMP22 element beta-lactamase FRET, 24 h
Summary of the method: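 Rat S16 Schwann cells with beta-Lac driven by a PMP22 intronic element, compound-treated 24 h at 37 °C. LiveBLAzer FRET B/G read: 460 nm normalized to potassium clavulanate vs DMSO; 535 nm FRET as viability; concentration-effect curves classified.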

[6] = qHTS assay for small molecule antagonists of peroxisome proliferator-activated receptor gamma signaling (AID 588537); conditions: HEK293 PPARg-UAS-bla, beta-lactamase ratio, antagonist mode; measured here: W460 blue channel
Summary of the method: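 We seeded GeneBLAzer HEK293 reporter cells at 3000 per well, allowed 6-6.5 h attachment at 37 C, then co-treated with test compound titrations and 50 nM rosiglitazone overnight (16 h). Inhibition was quantified from 460/530 nm emission ratios.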

[7] = TFE3-RCC viability, measured here: UOK124 cell viability
[8] = TFE3-RCC viability, measured here: UOK145 cell viability
[9] = measured here: PEO1 parental viability
[10] = TFE3-RCC UOK109 viability, measured here: UOK109 Z-AUC
[11] = TFE3-RCC viability, measured here: UOK124 Z-AUC
[12] = TFE3-RCC viability, measured here: UOK145 Z-AUC

Cc1[nH]c2ccccc2c1CCNCc1ccc(C=CC(=O)NO)cc1
AC50 [1, 7]: 235 nM [falling, full curve]
AC50 [1, 8]: 833 nM [falling, full curve]

COC(=O)[C@]12CCC(C)(C)C[C@@H]1[C@@H]1C(=O)C=C3[C@@]4(C)C=C(C#N)C(=O)C(C)(C)[C@@H]4CC[C@@]3(C)[C@]1(C)CC2
AC50 [1, 7]: 4690 nM [falling, partial curve]
AC50 [1, 8]: 418 nM [falling, full curve]

O=c1c(O)c(-c2cc(O)c(O)c(O)c2)oc2cc(O)cc(O)c12
AC50 [2]: 84900 nM [falling, single point]
AC50 ([3]; measured here: PEO4 viability): 17400 nM [falling, partial curve, poor fit]

Nc1ccc(S(N)(=O)=O)cc1
max response [4]: 56.9%
AC50 [3, 9]: 49 nM [rising, full curve, poor fit]

CCOc1cc2ncc(C#N)c(Nc3ccc(F)c(Cl)c3)c2cc1NC(=O)C=CCN(C)C
AC50 [1, 7]: 14800 nM [falling, partial curve]
AC50 [1, 8]: 526 nM [falling, full curve]

O=C(C=Cc1ccc(CN(CCO)CCc2c[nH]c3ccccc23)cc1)NO
AC50 [1, 7]: 332 nM [falling, full curve]
AC50 [1, 8]: 1050 nM [falling, full curve]

CCn1cc(C(=O)O)c(=O)c2cc(F)c(N3CCNCC3)cc21
AC50 ([5]; measured here: 460 nm blue channel): 2390 nM [falling, full curve, poor fit]
AC50 ([5]; measured here: 530 nm viability channel): 2240 nM [falling, full curve, poor fit]
AC50 ([3]; measured here: PEO4 viability): 21.9 nM [rising, full curve]

CCCc1cc(=O)[nH]c(=S)[nH]1
AC50 [6]: 14100 nM [falling, partial curve, poor fit]
AC50 [3, 9]: 87.1 nM [rising, full curve, poor fit]
z-score [1, 10]: 0.0778
z-score [1, 11]: 0.92
z-score [1, 12]: 0.221

CC[C@]1(O)C[C@H]2CN(CCC3=c4ccccc4=N[C]3[C@@](C(=O)OC)(c3cc4c(cc3OC)N(C)[C@H]3[C@@](O)(C(N)=O)[C@H](O)[C@]5(CC)C=CCN6CC[C@]43[C@@H]65)C2)C1
AC50 [1, 7]: 66.2 nM [falling, full curve]
AC50 [1, 8]: 264 nM [falling, full curve]

Cc1ccc(-c2ncn(-c3ccc(Nc4nccc(-c5cccc(N6CCOCC6)c5)n4)cc3)n2)cn1
AC50 [1, 7]: 148 nM [falling, full curve]
AC50 [1, 8]: 332 nM [falling, full curve]

CN[C@@H]1C[C@H]2O[C@@](C)([C@H]1OC)n1c3ccccc3c3c4c(c5c6ccccc6n2c5c31)C(=O)N[C@H]4O
AC50 [1, 7]: 469 nM [falling, full curve]
AC50 [1, 8]: 662 nM [falling, full curve]

C[C@@H]1C[C@H]2[C@@H]3CCC4=CC(=O)C=C[C@]4(C)[C@@]3(F)[C@@H](O)C[C@]2(C)[C@@]1(O)C(=O)CO
max response [4]: 47.8% and 85.9%
AC50 ([3]; measured here: PEO4 viability): 7.8 nM [falling, full curve, poor fit]

CCn1c(=O)c2c(nc(C=Cc3ccc(OC)c(OC)c3)n2C)n(CC)c1=O
z-score [1, 10]: 0.855
z-score [1, 11]: 1.15
z-score [1, 12]: 0.686

O=C1c2c(O)cc(O)cc2O[C@H](c2cc(O)c(O)c(O)c2)[C@H]1O
z-score [1, 10]: -3.3
z-score [1, 11]: 0.876
z-score [1, 12]: 1.25

Cc1c(-c2cccc3c(CCCOc4cccc5ccccc45)c(C(=O)O)n(Cc4cccnc4)c23)c(COc2ccc(N3CCN([S+](=O)([O-])N(C)C)CC3)cc2)nn1C
z-score [1, 10]: 0.601
z-score [1, 11]: -0.0323
z-score [1, 12]: 0.291

O=C(O)c1ccc(O)c2ncc(N3CCOCC3)cc12
z-score [1, 10]: 0.831
z-score [1, 11]: 0.688
z-score [1, 12]: 0.614

COc1ccc(C2(C#N)CCC(C(=O)O)CC2)cc1OC1CCCC1 (configuration not stated)
z-score [1, 10]: 0.41
z-score [1, 11]: 0.748
z-score [1, 12]: 0.646

CCCCCCCCCC(=O)N[C@@H](Cc1c[nH]c2ccccc12)C(=O)N[C@H](CC(N)=O)C(=O)N[C@@H](CC(=O)O)C(=O)N[C@@H]1C(=O)NCC(=O)N[C@@H](CCCN)C(=O)N[C@@H](CC(=O)O)C(=O)N[C@H](C)C(=O)N[C@@H](CC(=O)O)C(=O)NCC(=O)N[C@H](CO)C(=O)N[C@@H]([C@@H](C)CC(=O)O)C(=O)N[C@@H](CC(=O)c2ccccc2N)C(=O)O[C@@H]1C
z-score [1, 10]: 0.505
z-score [1, 11]: 0.955
z-score [1, 12]: 0.571

CC(C)(Sc1cc(C(C)(C)C)c(O)c(C(C)(C)C)c1)Sc1cc(C(C)(C)C)c(O)c(C(C)(C)C)c1
z-score [1, 10]: 0.491
z-score [1, 11]: 0.369
z-score [1, 12]: 0.363

N#C[C@H]1C[C@H]2C[C@@H]2N1C(=O)[C@@H](N)C12CC3CC(CC(O)(C3)C1)C2
z-score [1, 10]: 0.491
z-score [1, 11]: 0.424
z-score [1, 12]: 0.678
